According to PMC10217912:
No constants are given. Whether binding was seen depends on the method and setting. Binding seen in cells or lysates may run through a third protein. Some entries that bind do so weakly or less than the wild type. For some assays here: Sequences can lack the tags named with a protein.

By UniProt entry, the sequences of proteins in these tests, tags left out. Where a name states a change or a piece, a line headed by the entry shows the natural chain unless it says otherwise. Chains listed by the source or under a name are the forms on record and can include a tag or linker. Residues count along the entry.
UniProt P25490: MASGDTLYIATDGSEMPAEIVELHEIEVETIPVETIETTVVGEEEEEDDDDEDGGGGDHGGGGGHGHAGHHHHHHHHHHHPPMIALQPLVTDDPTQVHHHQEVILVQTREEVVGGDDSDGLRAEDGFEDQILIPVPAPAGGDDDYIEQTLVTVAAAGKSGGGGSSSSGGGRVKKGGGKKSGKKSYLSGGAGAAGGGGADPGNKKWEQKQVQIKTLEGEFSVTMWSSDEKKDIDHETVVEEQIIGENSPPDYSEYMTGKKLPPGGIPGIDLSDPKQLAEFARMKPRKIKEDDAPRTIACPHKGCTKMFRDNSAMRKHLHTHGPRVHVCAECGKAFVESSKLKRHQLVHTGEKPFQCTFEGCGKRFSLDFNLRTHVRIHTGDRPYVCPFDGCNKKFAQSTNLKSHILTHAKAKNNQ
His-GST tagged YY1/146–270: residues 146-270 of P25490
YY1/Δ146–270 (P25490, form named): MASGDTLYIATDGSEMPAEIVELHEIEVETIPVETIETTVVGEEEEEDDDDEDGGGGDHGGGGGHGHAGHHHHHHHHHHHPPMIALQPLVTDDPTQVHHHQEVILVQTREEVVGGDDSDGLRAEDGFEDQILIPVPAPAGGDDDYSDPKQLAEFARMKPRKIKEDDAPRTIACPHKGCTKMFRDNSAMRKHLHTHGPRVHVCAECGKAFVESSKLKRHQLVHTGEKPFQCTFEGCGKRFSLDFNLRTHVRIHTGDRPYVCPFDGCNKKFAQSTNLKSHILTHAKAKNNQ
UniProt Q13547: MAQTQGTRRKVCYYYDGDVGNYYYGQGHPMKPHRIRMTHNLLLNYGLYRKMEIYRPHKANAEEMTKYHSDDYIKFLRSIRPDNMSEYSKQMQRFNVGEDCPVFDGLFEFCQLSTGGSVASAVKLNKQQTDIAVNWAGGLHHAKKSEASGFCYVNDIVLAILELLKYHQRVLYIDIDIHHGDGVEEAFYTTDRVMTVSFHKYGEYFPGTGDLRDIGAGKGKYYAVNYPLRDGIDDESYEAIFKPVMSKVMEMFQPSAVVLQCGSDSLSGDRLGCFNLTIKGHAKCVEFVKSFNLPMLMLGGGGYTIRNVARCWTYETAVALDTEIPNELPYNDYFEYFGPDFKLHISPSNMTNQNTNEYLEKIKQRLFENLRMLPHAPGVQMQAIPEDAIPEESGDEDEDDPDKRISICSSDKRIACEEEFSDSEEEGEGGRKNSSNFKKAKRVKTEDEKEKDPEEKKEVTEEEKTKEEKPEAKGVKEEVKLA

Assays:
[1] = target: T1, Flag-MOF (in HCT116) (human) (UniProt Q9H7Z6); assay: co-IP; Flag IP from HCT116 cells overexpressing a Flag-tagged protein; endogenous partner detected by Western blot; RIPA lysate buffer (1% NP-40, 150 mM NaCl, 50 mM Tris-HCl, 10% glycerol, 1 mM DTT), anti-Flag (M2) agarose overnight at 4 °C
T1 sequence: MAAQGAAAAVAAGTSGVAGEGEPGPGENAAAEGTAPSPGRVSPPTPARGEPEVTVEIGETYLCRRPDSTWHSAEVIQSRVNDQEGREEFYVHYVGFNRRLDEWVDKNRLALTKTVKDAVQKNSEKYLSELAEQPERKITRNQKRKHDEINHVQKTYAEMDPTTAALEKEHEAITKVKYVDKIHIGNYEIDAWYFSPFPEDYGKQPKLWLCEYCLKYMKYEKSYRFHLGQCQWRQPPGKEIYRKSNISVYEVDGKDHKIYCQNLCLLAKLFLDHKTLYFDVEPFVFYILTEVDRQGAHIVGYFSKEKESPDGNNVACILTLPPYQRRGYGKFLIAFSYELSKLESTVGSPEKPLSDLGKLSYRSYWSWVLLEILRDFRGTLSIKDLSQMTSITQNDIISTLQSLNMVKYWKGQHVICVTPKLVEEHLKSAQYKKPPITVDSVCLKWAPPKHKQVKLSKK

[2] = target: T2, Myc-MOF (full length) (human) (UniProt Q9H7Z6); assay: co-IP; competitive binding: HCT116 cells transfected with Flag-YY1wt and Myc-MOF with or without YY1/146–270; 48 h; MOF bound to YY1 analysed after a Flag IP
T2 sequence: T1 sequence

[3] = target: Flag-YY1 (wild-type Yin Yang 1) (human) (UniProt P25490); assay: co-IP; competition: HCT116 cells co-transfected with Flag-YY1/HDAC1, YY1/MOF or YY1/MOF/HDAC1; 48 h; proteins bound to YY1 after a Flag IP analysed by Western blot
[4] = target: Flag-YY1 (wild-type Yin Yang 1) (human) (UniProt P25490); assay: co-IP; HCT116 cells co-transfected with both partners, 48 h; whole-cell lysate in RIPA lysate buffer (1% NP-40, 150 mM NaCl, 50 mM Tris-HCl, 10% glycerol, 1 mM DTT); anti-Flag (M2) or anti-Myc agarose overnight at 4 °C; Western blot
HDAC1 (human) = HDAC1 (human) (UniProt Q13547); assay: as above
[5] = target: Flag-YY1 (wild-type Yin Yang 1) (human) (UniProt P25490); assay: as above; remark: listed apart in the source
[6] = target: Flag-YY1 (wild-type Yin Yang 1) (human) (UniProt P25490); assay: co-IP; competitive binding: HCT116 cells transfected with Flag-YY1wt and Myc-MOF with or without YY1/146–270; 48 h; MOF bound to YY1 analysed after a Flag IP
YY1/Δ146–270 (human) = YY1/Δ146–270 (human) (UniProt P25490); assay: co-IP; HCT116 cells co-transfected with both partners, 48 h; whole-cell lysate in RIPA lysate buffer (1% NP-40, 150 mM NaCl, 50 mM Tris-HCl, 10% glycerol, 1 mM DTT); anti-Flag (M2) or anti-Myc agarose overnight at 4 °C; Western blot
YY1K183R mutant (human) = YY1K183R mutant (human) (UniProt P25490); assay: as above
[7] = target: His-GST tagged YY1/146–270 (human) (UniProt P25490); assay: pull-down; GST-pulldown: purified His-GST tagged YY1 deletion mutants mixed with whole cell lysate of Flag-MOF overexpressing 293T cells; only the target purified

endogenous YY1 (from UniProt P25490 1-414)
binding [1]: binds

YY1/146–270 (expressed in HCT116) (from UniProt P25490 146-270) (domain or fragment)
binding [2]: binds

HDAC1 (from UniProt Q13547 1-482) (enzyme)
binding [3]: binds | binding [4]: binds

Flag-YY1 (wild-type Yin Yang 1) (from UniProt P25490 1-414)
binding (HDAC1 (human)): binds

B1: MSL2 (protein, UniProt Q9HCI7-1 1-577)
chain: MNPVNATALYISASRLVLNYDPGDPKAFTEINRLLPYFRQSLSCCVCGHLLQDPIAPTNSTCQHYVCKTCKGKKMMMKPSCSWCKDYEQFEENKQLSILVNCYKKLCEYITQTTLARDIIEAVDCSSDILALLNDGSLFCEETEKPSDSSFTLCLTHSPLPSTSEPTTDPQASLSPMSESTLSIAIGSSVINGLPTYNGLSIDRFGINIPSPEHSNTIDVCNTVDIKTEDLSDSLPPVCDTVATDLCSTGIDICSFSEDIKPGDSLLLSVEEVLRSLETVSNTEVCCPNLQPNLEATVSNGPFLQLSSQSLSHNVFMSTSPALHGLSCTAATPKIAKLNRKRSRSESDSEKVQPLPISTIIRGPTLGASAPVTVKRESKISLQPIATVPNGGTTPKISKTVLLSTKSMKKSHEHGSKKSHSKTKPGILKKDKAVKEKIPSHHFMPGSPTKTVYKKPQEKKGCKCGRATQNPSVLTCRGQRCPCYSNRKACLDCICRGCQNSYMANGEKKLEAFAVPEKALEQTRLTLGINVTSIAVRNASTSTSVINVTGSPVTTFLAASTHDDKSLDEAIDMRFDC
binding [5]: binds

B2: Myc-MOF (full length) (protein, UniProt Q9H7Z6-1 1-458)
chain: T1 sequence
binding [6]: binds | binding [3]: binds | binding [5]: binds | binding (YY1/Δ146–270 (human)): binds | binding (YY1K183R mutant (human)): binds

B3: untagged MOF (protein, UniProt Q9H7Z6-1 1-458)
chain: T1 sequence
binding [5]: binds

B4: Flag-MOF (in 293T) (protein, UniProt Q9H7Z6-1 1-458)
chain: T1 sequence
binding [7]: binds

B5: Myc-tagged MOF C-terminal (158–459 aa) (domain or fragment, UniProt Q9H7Z6-1 158-458)
chain: EMDPTTAALEKEHEAITKVKYVDKIHIGNYEIDAWYFSPFPEDYGKQPKLWLCEYCLKYMKYEKSYRFHLGQCQWRQPPGKEIYRKSNISVYEVDGKDHKIYCQNLCLLAKLFLDHKTLYFDVEPFVFYILTEVDRQGAHIVGYFSKEKESPDGNNVACILTLPPYQRRGYGKFLIAFSYELSKLESTVGSPEKPLSDLGKLSYRSYWSWVLLEILRDFRGTLSIKDLSQMTSITQNDIISTLQSLNMVKYWKGQHVICVTPKLVEEHLKSAQYKKPPITVDSVCLKWAPPKHKQVKLSKK
binding [5]: binds
